Values joined by “and” are separate entries in the source; they are usually repeats but may differ in a detail not shown here. Identical values can stand only once. Like-named read-outs stand apart in the source and are kept apart here. Part of at least one peptide drawing is inferred or uncertain, most often the ends. Ends that are not written are not given here.
How the values were obtained:
[1] = test system: Treg cells with the CD4+CD25^highFoxp3+ phenotype; details: ex vivo, cited from earlier work
C-reactive protein [2] = details: patients with rheumatoid arthritis treated with this peptide; cited from earlier work
[3] = test system: macrophage activation syndrome, secondary to infection by the virus that causes dengue; experiment: Treatment of a dengue patient with macrophage activation syndrome (Example 8); type: in vivo, human
[4] = test system: acute respiratory distress syndrome in patients with Covid-19
IFNγ = experiment: Serum IFNγ by ELISA in treated critical Covid-19 patients (Example 4); type: in vivo, human; details: serum of critical Covid-19 patients after treatment
[5] = test system: pericarditis secondary to myocarditis, of viral etiology (Covid-19); experiment: Treatment of a patient with pericarditis of viral etiology (Example 6); type: in vivo, human; details: Covid-19 patient with pericarditis, 1 mg every 12 hours
TNFα = experiment: Serum TNFα by ELISA in treated critical Covid-19 patients (Example 4); type: in vivo, human; details: serum of critical Covid-19 patients after treatment
IL-17 = experiment: Serum IL-17 by ELISA in treated critical Covid-19 patients (Example 4); type: in vivo, human; details: serum of critical Covid-19 patients after treatment
C-reactive protein [6] = experiment: C-reactive protein concentration in treated Covid-19 patients (Example 3); type: in vivo, human
hepatic encephalopathy = experiment: Treatment of a Covid-19 patient with hepatic encephalopathy (Example 7); type: in vivo, human; details: i.v. 1 mg every 12 hours
ferritin = experiment: Treatment of a Covid-19 patient with high ferritin without respiratory distress (Example 5); type: in vivo, human; details: 1 mg every 12 hours
IL-6 = experiment: Serum IL-6 by ELISA in treated critical Covid-19 patients (Example 4); type: in vivo, human
[7] = test system: respiratory distress syndrome in patients with Covid-19; experiment: Early administration to prevent respiratory distress syndrome in seriously ill Covid-19 patients (Example 2); type: in vivo, human
IL-1 = experiment: Serum IL-1 by ELISA in treated critical Covid-19 patients (Example 4); type: in vivo, human; details: serum of critical Covid-19 patients after treatment
[8] = i.v. 1 mg every 12 hours (patients 5 and 6: 2 mg), one line per patient, in the order 1-10
[9] = i.v. 1 mg every 12 hours, one line per patient: 1, 2, 3, 4, 7, 8
[10] = three Covid-19 patients in serious condition, i.v. 1 mg every 24 hours, after 2 hours of treatment

SIDLKDKYKNIGAKLVQLVANNTNEEA [peptide identified as SEQ ID NO: 1]
frequency of Treg cells with the CD4+CD25^highFoxp3+ phenotype ([1]; cells from healthy donors): this does not happen | frequency of Treg cells with the CD4+CD25^highFoxp3+ phenotype ([1]; peripheral blood mononuclear cells from rheumatoid arthritis patients): increases | significant decrease in C-reactive protein (C-reactive protein [2]): could not be demonstrated | clinical and radiological state ([3]; 1 mg every 12 hours, every 24 hours after 72 hours, after the seventh day of treatment): clinically and radiologically asymptomatic | laboratory parameters ([3]; at discharge): normalized | clinical state ([3]; i.v. 1 mg every 12 hours, after 48 hours of treatment): noticeable improvement | fatality rate ([4]; critical or seriously ill patients confirmed with SARS-CoV-2, treated with the composition (68.6% in individuals not treated)): 13.0% | levels of circulating lymphocytes ([4]; patients had lymphopenia before therapy): gradually recovered to normality | clinical evolution ([4]; ten Covid-19 patients with acute respiratory distress syndrome, i.v. every 12 hours): favorable | IFNγ level (IFNγ): decrease | electrocardiogram ([5]; after 24 hours of treatment): showed improvement | clinical state ([5]; at 96 hours of treatment): asymptomatic | TNFα level (TNFα): decrease | IL-17 level (IL-17): decrease | C-reactive protein concentration, at the beginning of treatment (C-reactive protein [6]; baseline of the treated patients, one line per patient, in the order 1-10): 60 mg/mL and 494 mg/mL and 195 mg/mL (2×) and 299 mg/mL and 140 mg/mL and 232 mg/mL and 215 mg/mL and 131 mg/mL and 276 mg/mL | C-reactive protein concentration, after treatment Day 3 (C-reactive protein [6]; i.v. 1 mg every 12 hours (patients 5 and 6: 2 mg), one line per patient (patient 8 not quantified)): 17 mg/mL and 51 mg/mL and 86 mg/mL (3×) and 176 mg/mL and 165 mg/mL and 167 mg/mL and 147 mg/mL | C-reactive protein concentration, after treatment Day 1 (C-reactive protein [6]; [8]): 49 mg/mL and 141 mg/mL and 165 mg/mL and 198 mg/mL and 135 mg/mL and 195 mg/mL and 200 mg/mL and 130 mg/mL and 157 mg/mL and 108 mg/mL | C-reactive protein concentration, after treatment Day 4 (C-reactive protein [6]; [8]): 4 mg/mL and 29 mg/mL and 55 mg/mL (2×) and 45 mg/mL and 37 mg/mL and 86 mg/mL and 118 mg/mL and 24 mg/mL and 75 mg/mL | liver enzymes (hepatic encephalopathy; after 72 hours of treatment): decrease | clinical characteristics corresponding to a hepatic encephalopathy (hepatic encephalopathy; at 96 hours of treatment): completely reversed | ferritin concentration upon completion of the treatment (ferritin; 96 hours plus a further 72 hours): normalized | ferritin values (ferritin; after 96 hours of treatment, above 1500 ng/mL before): 350 ng/mL | IL-6 cytokine levels, before administration of the peptide (IL-6; baseline just before first dose, one line per patient: 1, 2, 3, 4, 7, 8): 61.245 pg/mL and 154.95 pg/mL and 145.99 pg/mL and 82.36 pg/mL and 177.56 pg/mL and 61.045 pg/mL | IL-6 cytokine levels, 72 h after peptide administration (IL-6; i.v. 1 mg every 12 hours, one line per patient: 1, 2, 3, 4, 7): 0.68 pg/mL and 1.95 pg/mL and 14.12 pg/mL and 20.03 pg/mL and 17.965 pg/mL | IL-6 cytokine levels, 48 h after peptide administration (IL-6; [9]): 0.68 pg/mL and 202.52 pg/mL and 11.33 pg/mL and 1.99 pg/mL and 14.45 pg/mL and 12.08 pg/mL | IL-6 cytokine levels, 96 h after peptide administration (IL-6; [9]): 0.98 pg/mL and 51.57 pg/mL and 19.76 pg/mL and 3.43 pg/mL and 1.71 pg/mL and 5.715 pg/mL | body temperature ([7]; Covid-19 patient, fever of 39° C. before, i.v. 1 mg every 12 hours, after 2 hours): decreased | development of acute respiratory distress syndrome ([7]; Covid-19 patient, i.v. 1 mg every 12 hours): did not develop acute respiratory distress syndrome | dyspnea condition ([7]; Covid-19 patient, i.v. 1 mg every 12 hours, after 2 hours): disappeared | ferritin concentration ([7]; Covid-19 patient, i.v. 1 mg every 12 hours, at 72 hours, 700 ng/mL before): below 500 ng/mL | development of acute respiratory distress syndrome ([7]; three Covid-19 patients in serious condition, i.v. 1 mg every 24 hours): did not develop acute respiratory distress syndrome | body temperature [7, 10]: decreased | dyspnea [7, 10]: disappeared | ferritin concentration ([7]; three Covid-19 patients in serious condition, i.v. 1 mg every 24 hours, after 72 hours): below 200 ng/mL | IL-1 level (IL-1): decrease

Source: patent US20230190866A1, “PEPTIDE FOR THE TREATMENT OF CYTOKINE STORM SYNDROME” (priority 2020, published 2023)
